Test results: paper PMC8505401
No constants are given. Whether binding was seen depends on the method and setting. In cells and extracts the contact can be indirect. A yes stands for co-enrichment or nearness to the bait. Other partners may have been found.

The chains behind the UniProt entries cited, without tags or fusion partners. Residues count along the entry.
UniProt P07996, residues 19-1170: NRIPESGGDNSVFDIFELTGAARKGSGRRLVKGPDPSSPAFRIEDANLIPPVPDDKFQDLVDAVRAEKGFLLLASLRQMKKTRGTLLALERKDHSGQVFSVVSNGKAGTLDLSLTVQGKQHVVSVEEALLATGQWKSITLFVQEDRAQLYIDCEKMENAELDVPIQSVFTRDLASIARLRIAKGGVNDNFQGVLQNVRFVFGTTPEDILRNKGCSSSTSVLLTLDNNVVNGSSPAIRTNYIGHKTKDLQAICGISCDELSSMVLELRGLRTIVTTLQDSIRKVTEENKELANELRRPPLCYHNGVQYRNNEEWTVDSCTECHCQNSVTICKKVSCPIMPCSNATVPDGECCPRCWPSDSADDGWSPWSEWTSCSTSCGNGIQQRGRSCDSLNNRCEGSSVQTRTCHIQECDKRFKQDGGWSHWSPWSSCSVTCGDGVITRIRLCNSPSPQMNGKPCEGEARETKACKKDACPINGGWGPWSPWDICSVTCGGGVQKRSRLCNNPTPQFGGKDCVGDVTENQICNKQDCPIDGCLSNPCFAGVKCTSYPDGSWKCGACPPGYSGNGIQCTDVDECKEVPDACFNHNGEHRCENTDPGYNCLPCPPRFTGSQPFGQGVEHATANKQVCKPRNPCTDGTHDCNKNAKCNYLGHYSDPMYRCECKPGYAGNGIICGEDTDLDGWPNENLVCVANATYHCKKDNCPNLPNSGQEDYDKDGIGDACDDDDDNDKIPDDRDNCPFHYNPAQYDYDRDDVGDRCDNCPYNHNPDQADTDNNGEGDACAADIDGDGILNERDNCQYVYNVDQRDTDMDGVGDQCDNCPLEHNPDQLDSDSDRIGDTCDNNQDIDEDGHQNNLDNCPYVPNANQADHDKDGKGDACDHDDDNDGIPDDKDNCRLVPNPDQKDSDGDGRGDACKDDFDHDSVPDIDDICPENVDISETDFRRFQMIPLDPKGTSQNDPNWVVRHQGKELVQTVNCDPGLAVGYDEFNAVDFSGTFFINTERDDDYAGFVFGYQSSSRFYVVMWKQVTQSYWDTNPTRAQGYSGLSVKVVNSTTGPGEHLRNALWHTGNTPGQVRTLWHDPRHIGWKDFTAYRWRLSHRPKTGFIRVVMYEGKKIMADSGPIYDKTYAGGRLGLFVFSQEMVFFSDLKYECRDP
UniProt P35579: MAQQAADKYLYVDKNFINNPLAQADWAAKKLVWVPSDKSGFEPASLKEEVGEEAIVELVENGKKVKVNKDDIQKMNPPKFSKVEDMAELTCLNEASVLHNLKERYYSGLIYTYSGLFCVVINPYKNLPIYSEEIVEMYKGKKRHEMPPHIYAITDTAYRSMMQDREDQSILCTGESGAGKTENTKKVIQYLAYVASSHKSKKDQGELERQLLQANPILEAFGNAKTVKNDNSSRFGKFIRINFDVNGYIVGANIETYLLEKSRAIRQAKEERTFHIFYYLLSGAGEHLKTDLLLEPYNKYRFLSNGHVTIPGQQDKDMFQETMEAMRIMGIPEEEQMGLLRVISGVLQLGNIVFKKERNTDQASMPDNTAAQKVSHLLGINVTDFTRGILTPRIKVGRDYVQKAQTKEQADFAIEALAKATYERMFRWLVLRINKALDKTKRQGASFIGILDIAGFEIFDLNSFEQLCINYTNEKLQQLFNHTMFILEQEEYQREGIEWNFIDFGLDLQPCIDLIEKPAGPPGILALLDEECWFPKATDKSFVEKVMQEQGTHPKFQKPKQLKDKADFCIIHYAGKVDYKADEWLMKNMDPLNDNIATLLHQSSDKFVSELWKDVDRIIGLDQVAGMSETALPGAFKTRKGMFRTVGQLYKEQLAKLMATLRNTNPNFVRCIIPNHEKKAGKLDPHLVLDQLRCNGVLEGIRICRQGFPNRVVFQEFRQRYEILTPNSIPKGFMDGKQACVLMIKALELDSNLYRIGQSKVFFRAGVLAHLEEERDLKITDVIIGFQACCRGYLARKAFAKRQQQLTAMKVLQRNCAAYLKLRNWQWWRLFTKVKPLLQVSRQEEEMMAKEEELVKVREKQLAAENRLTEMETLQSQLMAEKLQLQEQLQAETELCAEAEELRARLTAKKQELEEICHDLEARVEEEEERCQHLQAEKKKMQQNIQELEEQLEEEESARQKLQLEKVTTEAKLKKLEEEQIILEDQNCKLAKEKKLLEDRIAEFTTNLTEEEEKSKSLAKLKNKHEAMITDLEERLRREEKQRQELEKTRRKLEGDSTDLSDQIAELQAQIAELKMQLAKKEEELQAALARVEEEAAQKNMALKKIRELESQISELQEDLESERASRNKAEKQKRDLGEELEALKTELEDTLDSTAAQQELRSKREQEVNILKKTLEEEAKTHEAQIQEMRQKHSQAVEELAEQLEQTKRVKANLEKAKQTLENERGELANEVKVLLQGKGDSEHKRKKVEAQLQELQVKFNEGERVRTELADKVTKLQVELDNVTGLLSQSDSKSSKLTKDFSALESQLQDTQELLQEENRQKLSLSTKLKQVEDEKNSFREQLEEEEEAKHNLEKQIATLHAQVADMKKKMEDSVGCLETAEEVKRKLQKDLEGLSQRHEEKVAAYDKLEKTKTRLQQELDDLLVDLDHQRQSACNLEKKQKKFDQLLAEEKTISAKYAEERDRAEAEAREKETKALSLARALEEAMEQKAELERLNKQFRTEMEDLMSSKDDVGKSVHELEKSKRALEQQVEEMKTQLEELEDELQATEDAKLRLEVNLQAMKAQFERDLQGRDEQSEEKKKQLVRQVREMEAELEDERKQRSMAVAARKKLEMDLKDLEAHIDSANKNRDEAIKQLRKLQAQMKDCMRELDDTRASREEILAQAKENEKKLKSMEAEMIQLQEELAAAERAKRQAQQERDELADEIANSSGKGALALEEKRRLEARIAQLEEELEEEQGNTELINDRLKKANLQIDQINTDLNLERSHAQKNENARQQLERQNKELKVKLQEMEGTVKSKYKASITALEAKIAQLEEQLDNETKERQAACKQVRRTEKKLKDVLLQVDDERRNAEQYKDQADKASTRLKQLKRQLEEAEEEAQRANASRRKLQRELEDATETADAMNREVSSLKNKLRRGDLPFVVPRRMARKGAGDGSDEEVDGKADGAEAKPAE

Target: Thrombospondin 1 (human (endogenous in N14042)) (UniProt P07996)
Test: affinity purification with mass spectrometry; immunoprecipitation of THBS1 from glioma cells followed by mass spectrometry; no further conditions given

binding: binds
Substance: Myosin heavy chain 9 (from UniProt P35579 1-1960)
